Results are given in words; binding and its absence hold for the method and conditions named. Binding seen in cells or lysates may run through a third protein. Some entries that bind do so weakly or less than the wild type. Each block holds one substance with its values, some of them ahead of it.
Assays:
[1] = target: HA-tagged IRS-1 PH domain (PH^WT, IRS-1 residues 3-133) (rat) (UniProt P35570); assay: GST pull-down from yeast lysates, anti-HA western blot
[2] = target: HA-tagged IRS-1 PH domain (PH^WT, IRS-1 residues 3-133) (rat) (UniProt P35570); assay: GST pull-down from yeast lysates, anti-HA western blot (FIG. 2C)
[3] = target: IRS-1, endogenous in human kidney 293 cells (human) (UniProt P35568); assay: co-immunoprecipitation from 293 cell extracts with antibodies to the PHIP PBR (FIG. 2F)
[4] = target: IRS-1, endogenous in NIH/IR cells (NIH3T3 cells overexpressing the insulin receptor) (mouse) (UniProt P35569); assay: co-immunoprecipitation from NIH/IR lysates (FIG. 2E)
[5] = target: IRS-1, endogenous in NIH/IR cells (NIH3T3 cells overexpressing the insulin receptor) (mouse) (UniProt P35569); assay: co-immunoprecipitation from NIH/IR lysates with anti-IRS-1 C-terminus antibodies

Protein sequences, listed by entry. Tags and fused reporters are not part of them. Residues count along the entry.
UniProt P35570, residues 3-133: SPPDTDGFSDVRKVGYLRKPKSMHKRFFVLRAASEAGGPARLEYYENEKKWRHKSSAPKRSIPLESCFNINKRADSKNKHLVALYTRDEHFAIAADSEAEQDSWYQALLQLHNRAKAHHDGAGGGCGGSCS
UniProt P35568: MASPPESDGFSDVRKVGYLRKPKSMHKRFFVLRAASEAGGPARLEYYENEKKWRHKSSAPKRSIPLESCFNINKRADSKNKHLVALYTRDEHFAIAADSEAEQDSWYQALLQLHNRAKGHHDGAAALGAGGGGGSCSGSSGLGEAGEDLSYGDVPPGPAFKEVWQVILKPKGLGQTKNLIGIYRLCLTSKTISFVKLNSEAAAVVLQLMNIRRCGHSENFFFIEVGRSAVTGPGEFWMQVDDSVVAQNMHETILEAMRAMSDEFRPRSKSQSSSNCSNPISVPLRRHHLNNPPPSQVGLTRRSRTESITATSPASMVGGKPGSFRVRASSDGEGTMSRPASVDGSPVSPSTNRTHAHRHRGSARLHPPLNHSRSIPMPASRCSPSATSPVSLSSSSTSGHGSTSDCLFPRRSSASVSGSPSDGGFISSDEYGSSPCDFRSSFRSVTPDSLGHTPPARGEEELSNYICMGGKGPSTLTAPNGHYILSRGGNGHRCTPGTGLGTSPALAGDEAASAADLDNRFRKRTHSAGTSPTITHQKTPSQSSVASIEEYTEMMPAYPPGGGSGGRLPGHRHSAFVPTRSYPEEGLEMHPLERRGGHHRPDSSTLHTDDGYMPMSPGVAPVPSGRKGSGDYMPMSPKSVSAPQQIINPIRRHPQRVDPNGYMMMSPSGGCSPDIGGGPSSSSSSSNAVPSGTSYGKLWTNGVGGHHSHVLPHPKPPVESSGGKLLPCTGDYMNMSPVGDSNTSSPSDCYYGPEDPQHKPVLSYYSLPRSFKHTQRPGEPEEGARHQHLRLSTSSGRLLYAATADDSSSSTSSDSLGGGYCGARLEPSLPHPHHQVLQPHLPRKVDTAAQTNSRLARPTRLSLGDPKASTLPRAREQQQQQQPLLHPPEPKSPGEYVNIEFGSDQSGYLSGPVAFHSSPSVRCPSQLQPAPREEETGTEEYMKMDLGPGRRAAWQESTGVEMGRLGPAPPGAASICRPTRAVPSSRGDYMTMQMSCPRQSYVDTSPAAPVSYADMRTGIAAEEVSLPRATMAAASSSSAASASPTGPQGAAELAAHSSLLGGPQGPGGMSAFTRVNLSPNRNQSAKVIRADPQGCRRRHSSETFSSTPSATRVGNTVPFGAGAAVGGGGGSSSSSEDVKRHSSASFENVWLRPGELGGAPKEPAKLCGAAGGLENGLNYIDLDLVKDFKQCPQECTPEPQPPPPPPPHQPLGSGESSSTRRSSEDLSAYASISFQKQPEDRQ
UniProt P35569: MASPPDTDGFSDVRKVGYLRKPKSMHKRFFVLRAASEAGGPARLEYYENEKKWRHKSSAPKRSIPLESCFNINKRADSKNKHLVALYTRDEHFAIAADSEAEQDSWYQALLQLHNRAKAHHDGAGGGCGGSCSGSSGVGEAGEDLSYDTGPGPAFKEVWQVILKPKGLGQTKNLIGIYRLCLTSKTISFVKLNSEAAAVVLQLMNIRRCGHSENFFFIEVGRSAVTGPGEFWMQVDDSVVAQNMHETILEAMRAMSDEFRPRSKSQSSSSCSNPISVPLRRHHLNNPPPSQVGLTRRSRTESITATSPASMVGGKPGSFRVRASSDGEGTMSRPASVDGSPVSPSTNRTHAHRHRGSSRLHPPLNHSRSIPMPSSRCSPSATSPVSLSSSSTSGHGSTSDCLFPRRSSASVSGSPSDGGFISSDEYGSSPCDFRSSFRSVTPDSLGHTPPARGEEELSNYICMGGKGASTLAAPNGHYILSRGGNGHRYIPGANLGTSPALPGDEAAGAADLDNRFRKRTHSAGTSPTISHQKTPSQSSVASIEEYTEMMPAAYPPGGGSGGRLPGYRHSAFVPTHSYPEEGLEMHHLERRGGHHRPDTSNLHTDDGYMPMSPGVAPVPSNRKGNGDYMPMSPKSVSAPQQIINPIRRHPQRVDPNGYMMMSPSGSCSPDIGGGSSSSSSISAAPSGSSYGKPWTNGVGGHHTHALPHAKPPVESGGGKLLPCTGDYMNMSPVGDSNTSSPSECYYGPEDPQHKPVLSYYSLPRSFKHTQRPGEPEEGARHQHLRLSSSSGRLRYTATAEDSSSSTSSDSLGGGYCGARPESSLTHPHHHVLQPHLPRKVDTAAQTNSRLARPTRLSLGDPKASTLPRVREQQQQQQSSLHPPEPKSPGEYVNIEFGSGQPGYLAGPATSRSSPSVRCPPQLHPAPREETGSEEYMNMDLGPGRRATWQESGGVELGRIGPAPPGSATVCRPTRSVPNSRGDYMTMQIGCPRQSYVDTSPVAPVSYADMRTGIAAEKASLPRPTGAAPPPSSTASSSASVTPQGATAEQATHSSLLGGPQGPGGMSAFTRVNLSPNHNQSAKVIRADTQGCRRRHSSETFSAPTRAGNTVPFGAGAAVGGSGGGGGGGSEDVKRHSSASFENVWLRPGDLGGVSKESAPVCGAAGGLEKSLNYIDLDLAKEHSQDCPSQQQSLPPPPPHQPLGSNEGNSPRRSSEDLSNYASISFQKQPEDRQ

binding [1]: binds
binding [2]: binds
Substance: GST-PHIP fusion protein containing PHIP residues 8-209 (PBR) isolated from the yeast clone VP1.32 (from UniProt Q8VDD9 927-1128)

binding [3]: binds
Substance: human PHIP (hPHIP), endogenous in U266, A431 and 293 cells (from UniProt Q8WWQ0 924-1821)

binding [4]: binds
binding [5]: binds
Substance: mouse PHIP (mPHIP), endogenous in NIH/IR and NIH/3T3 cells (from UniProt Q8VDD9 924-1821)

— patent US20040086863A1
